# In PMC6717287:
# By UniProt entry, the sequences of proteins in these tests, tags left out. Where a name states a change or a piece, a line headed by the entry shows the natural chain unless it says otherwise.
# UniProt F4IDY5: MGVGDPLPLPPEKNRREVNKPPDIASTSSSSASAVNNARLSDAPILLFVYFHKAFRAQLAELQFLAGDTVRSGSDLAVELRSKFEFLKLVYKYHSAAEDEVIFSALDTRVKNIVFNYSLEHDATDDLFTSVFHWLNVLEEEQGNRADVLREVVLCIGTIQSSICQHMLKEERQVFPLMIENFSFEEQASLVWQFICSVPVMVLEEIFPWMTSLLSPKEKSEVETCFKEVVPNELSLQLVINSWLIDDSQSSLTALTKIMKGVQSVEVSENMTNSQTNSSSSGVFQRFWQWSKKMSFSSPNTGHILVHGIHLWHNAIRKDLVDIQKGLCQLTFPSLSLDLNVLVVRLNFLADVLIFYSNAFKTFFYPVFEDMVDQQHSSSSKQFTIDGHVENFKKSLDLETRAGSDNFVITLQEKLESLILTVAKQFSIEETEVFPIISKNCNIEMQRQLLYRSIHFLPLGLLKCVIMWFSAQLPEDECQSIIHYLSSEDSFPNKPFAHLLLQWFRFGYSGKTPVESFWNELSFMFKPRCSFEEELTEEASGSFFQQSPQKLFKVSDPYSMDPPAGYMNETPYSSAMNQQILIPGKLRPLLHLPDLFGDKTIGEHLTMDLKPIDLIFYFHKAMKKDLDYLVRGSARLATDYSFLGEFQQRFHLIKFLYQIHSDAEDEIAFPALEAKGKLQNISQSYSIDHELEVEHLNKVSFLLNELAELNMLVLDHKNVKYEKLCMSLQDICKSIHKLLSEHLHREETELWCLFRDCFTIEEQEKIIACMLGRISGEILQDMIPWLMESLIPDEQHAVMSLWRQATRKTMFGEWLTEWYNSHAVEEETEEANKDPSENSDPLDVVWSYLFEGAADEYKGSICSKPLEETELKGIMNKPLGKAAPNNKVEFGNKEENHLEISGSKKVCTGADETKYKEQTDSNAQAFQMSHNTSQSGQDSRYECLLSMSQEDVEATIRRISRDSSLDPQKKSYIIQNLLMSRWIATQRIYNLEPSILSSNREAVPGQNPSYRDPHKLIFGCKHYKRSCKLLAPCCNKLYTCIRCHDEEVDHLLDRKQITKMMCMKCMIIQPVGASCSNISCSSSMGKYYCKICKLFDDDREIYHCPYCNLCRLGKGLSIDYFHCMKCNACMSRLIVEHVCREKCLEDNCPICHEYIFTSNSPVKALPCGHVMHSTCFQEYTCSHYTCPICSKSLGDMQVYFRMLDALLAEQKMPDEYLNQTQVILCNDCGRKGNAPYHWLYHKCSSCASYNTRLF
# B1: bHLH39 (endogenous) (protein, UniProt Q9M1K0 1-258)
# chain: MCALVPPLFPNFGWPSTGEYDSYYLAGDILNNGGFLDFPVPEETYGAVTAVTQHQNSFGVSVSSEGNEIDNNPVVVKKLNHNASERDRRRKINSLFSSLRSCLPASGQSKKLSIPATVSRSLKYIPELQEQVKKLIKKKEELLVQISGQRNTECYVKQPPKAVANYISTVSATRLGDNEVMVQISSSKIHNFSISNVLSGLEEDRFVLVDMSSSRSQGERLFYTLHLQVEKIENYKLNCEELSQRMLYLYEECGNSYI
# Biological target: T1, Myc-FIT (FER-like iron deficiency-induced transcription factor), expressed from 35S:Myc-FIT in Arabidopsis (Arabidopsis thaliana) (UniProt Q0V7X4)
# T1 sequence: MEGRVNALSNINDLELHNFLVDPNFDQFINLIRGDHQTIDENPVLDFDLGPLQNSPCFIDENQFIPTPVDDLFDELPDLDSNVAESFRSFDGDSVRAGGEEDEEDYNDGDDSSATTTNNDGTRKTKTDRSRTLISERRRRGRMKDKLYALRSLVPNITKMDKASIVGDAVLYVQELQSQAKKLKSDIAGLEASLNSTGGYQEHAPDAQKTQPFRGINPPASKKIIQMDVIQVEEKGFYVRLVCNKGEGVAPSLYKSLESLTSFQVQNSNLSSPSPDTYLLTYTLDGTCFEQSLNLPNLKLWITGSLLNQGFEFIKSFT
# Test: affinity purification with mass spectrometry; root protein extract of plants expressing 35S:Myc-FIT, with the proteasomal inhibitor MG132; proteins bound to Myc affinity resin separated by SDS/PAGE and identified by LC-MS; control plants for comparison
row,Molecule,binding
1,"BRUTUS-LIKE2 (BTSL2), endogenous (from UniProt F4IDY5)",binds
2,B1,binds

# Results are given in words; binding and its absence hold for the method and conditions named. Binding seen in cells or lysates may run through a third protein. These calls come from enrichment with a bait or labelling near it, and not all partners need be listed. Where a sequence is shown, tags or fusion partners need not be part of it.
